Measured values reported in patent US5498624A, “Selected pyrazolyl derivatives” (Monsanto Company, priority 1995, dated 1996).
Some results were stated once for a whole list of compounds, not compound by compound.

tested on: Botrytis; assay: Application to vineyards; type: in vivo; settings: 0.01 to 2.0 kg active ingredient per hectare, compared to untreated fields

SMILES	incidence of Botrytis
C[C@@H]1CCC[C@H](c2ccccc2NC(=O)c2cn(C)nc2C(F)F)C1 (relative stereo) [Number 2, 1H-pyrazole-4-carboxamide, 3-(difluoromethyl)-1-methyl-N-[2-(-3-methylcyclohexyl)phenyl]-, cis-]	reduce the incidence of Botrytis compared to untreated fields
C[C@H]1CCC[C@H](c2ccccc2NC(=O)c2cn(C)nc2C(F)F)C1 (relative stereo) [Number 3, 1H-pyrazole-4-carboxamide, 3-(difluoromethyl)-1-methyl-N-[2-(3-methylcyclohexyl)phenyl]-, trans-]	reduce the incidence of Botrytis compared to untreated fields
Cn1cc(C(=O)Nc2ccccc2[C@@H]2CCC[C@@H](C(F)(F)F)C2)c(C(F)F)n1 (relative stereo) [Number 6]	reduce the incidence of Botrytis compared to untreated fields
CC[C@H]1CC[C@@H](c2ccccc2NC(=O)c2cn(C)nc2C(F)F)CC1 [Number 1, 1H-pyrazole-4-carboxamide, 3-(difluoromethyl)-N-[2-(4-ethylcyclohexyl)phenyl]-1-methyl-, cis-]	reduce the incidence of Botrytis compared to untreated fields
Cn1cc(C(=O)Nc2ccccc2[C@H]2CC[C@H](C)CC2)c(C(F)(F)F)n1 [Number 4, 1H-pyrazole-4-carboxamide, 1-methyl-N-[2-(4-methylcyclohexyl)phenyl]-3-(trifluoromethyl)-, trans-]	reduce the incidence of Botrytis compared to untreated fields
Cn1cc(C(=O)Nc2ccccc2C2CCC(C)(C)CC2)c(C(F)F)n1 [Number 5, 1H-pyrazole-4-carboxamide, 3-(difluoromethyl)-N-(2-(4,4-dimethylcyclohexyl)phenyl]-1-methyl-]	reduce the incidence of Botrytis compared to untreated fields
CCO[C@H]1CC[C@H](c2ccccc2NC(=O)c2cn(C)nc2C(F)F)CC1 [Number 7, 1H-pyrazole-4-carboxamide, 3-(difluoromethyl)-N-[2-(4-ethoxycyclohexyl)phenyl]-1-methyl-,trans-]	reduce the incidence of Botrytis compared to untreated fields
Cn1cc(C(=O)Nc2ccccc2C2CCC(C(F)(F)F)CC2)c(C(F)F)n1 (centres unmarked) [Number 8]	reduce the incidence of Botrytis compared to untreated fields
